According to article PMC6162343:
No constants are given. Whether binding was seen depends on the method and setting.

How the values were obtained:
Experiment in all cases: SEC; gel filtration (Superdex S75 or Superdex 200) in 25 mM HEPES, pH 7.2, 150 mM NaCl, 2 mM DTT; elution volumes; both purified
[1] = target: full-length human METTL16 (1-562 aa) (human) (UniProt Q86W50)
[2] = target: METTL16-core (1-291 aa) (human) (UniProt Q86W50)
[3] = target: METTL16-ΔN (40-291 aa) (human) (UniProt Q86W50)

B1: full-length human METTL16 (1-562 aa) (enzyme, UniProt Q86W50-1 1-562)
chain: MALSKSMHARNRYKDKPPDFAYLASKYPDFKQHVQINLNGRVSLNFKDPEAVRALTCTLLREDFGLSIDIPLERLIPTVPLRLNYIHWVEDLIGHQDSDKSTLRRGIDIGTGASCIYPLLGATLNGWYFLATEVDDMCFNYAKKNVEQNNLSDLIKVVKVPQKTLLMDALKEESEIIYDFCMCNPPFFANQLEAKGVNSRNPRRPPPSSVNTGGITEIMAEGGELEFVKRIIHDSLQLKKRLRWYSCMLGKKCSLAPLKEELRIQGVPKVTYTEFCQGRTMRWALAWSFYDDVTVPSPPSKRRKLEKPRKPITFVVLASVMKELSLKASPLRSETAEGIVVVTTWIEKILTDLKVQHKRVPCGKEEVSLFLTAIENSWIHLRRKKRERVRQLREVPRAPEDVIQALEEKKPTPKESGNSQELARGPQERTPCGPALREGEAAAVEGPCPSQESLSQEENPEPTEDERSEEKGGVEVLESCQGSSNGAQDQEASEQFGSPVAERGKRLPGVAGQYLFKCLINVKKEVDDALVEMHWVEGQNRDLMNQLCTYIRNQIFRLVAVN
binding [1]: no binding

B2: METTL16-core (1-291 aa) (domain or fragment, UniProt Q86W50-1 1-291)
chain: MALSKSMHARNRYKDKPPDFAYLASKYPDFKQHVQINLNGRVSLNFKDPEAVRALTCTLLREDFGLSIDIPLERLIPTVPLRLNYIHWVEDLIGHQDSDKSTLRRGIDIGTGASCIYPLLGATLNGWYFLATEVDDMCFNYAKKNVEQNNLSDLIKVVKVPQKTLLMDALKEESEIIYDFCMCNPPFFANQLEAKGVNSRNPRRPPPSSVNTGGITEIMAEGGELEFVKRIIHDSLQLKKRLRWYSCMLGKKCSLAPLKEELRIQGVPKVTYTEFCQGRTMRWALAWSFYD
binding [2]: no binding

B3: METTL16-ΔN (40-291 aa) (domain or fragment, UniProt Q86W50-1 40-291)
chain: GRVSLNFKDPEAVRALTCTLLREDFGLSIDIPLERLIPTVPLRLNYIHWVEDLIGHQDSDKSTLRRGIDIGTGASCIYPLLGATLNGWYFLATEVDDMCFNYAKKNVEQNNLSDLIKVVKVPQKTLLMDALKEESEIIYDFCMCNPPFFANQLEAKGVNSRNPRRPPPSSVNTGGITEIMAEGGELEFVKRIIHDSLQLKKRLRWYSCMLGKKCSLAPLKEELRIQGVPKVTYTEFCQGRTMRWALAWSFYD
binding [3]: no binding
